{"source": "patent US20230312744A1", "about": "“Modulatory Substance of Tumor Immune Microenvironment, and Preventive, Diagnostic and/or Therapeutic Utilization of the Same” (The University Of Tokyo, priority 2020, published 2023)", "key": {"TCTP KO tumors": {"tested_on": "TCTP KO tumors", "assay": "Proliferation assay of subcutaneously transplanted TCTP KO SL4 tumor in C57BL/6 mice", "format": "in vivo, mouse", "details": "DHA 50 mg/kg intraperitoneal every day vs DMSO, FIG. 12(c)"}, "SL4 tumors": {"tested_on": "SL4 tumors", "assay": "Proliferation assay of subcutaneously transplanted SL4 tumor in C57BL/6 mice (tumor volume)", "format": "in vivo, mouse", "details": "DHA 50 mg/kg intraperitoneal every day", "description": "In FIG. 13(a), SL4 cells (1×10^5 cells) were subcutaneously transplanted into C57BL/6 mice. The monoclonal antibody (55F3) (n=5) reacting against TCTP or control IgG (n=6) was intraperitoneally administered to the mice, every other day from one day after the transplantation (200 μg/mouse). The tumor volume was measured over time. In FIG. 13(b), on Day 13 after the transplantation, single cell suspensions were prepared from tumors, and were then subjected to a flow cytometry analysis (n=5). […] In FIG. 13(c), SL4 cells (1×10^5 cells) were subcutaneously transplanted into C57BL/6 mice (n=6). After the transplantation, DHA (50 mg/kg) was intraperitoneally […] into the mice every day. The tumor volume was measured over time. In FIG. 13(d), SL4 cells (1×10^5 cells) were subcutaneously transplanted into C57BL/6 mice (n=6). […] The tumor volume was measured over time. […] In FIG. 13(f), the amount of TCTP in sera derived from healthy subjects (people who are not affected with cancer) (n=5) and colorectal cancer patients (n=14) was quantified by immunoblotting. […] In FIG. 13 (g), (right view) the relative staining intensity by the anti-TCTP antibody was semi-quantified, and the staining intensity of the colorectal cancer tissues was compared with the staining intensity of the normal large intestinal tissues (n=45). […]"}}, "note": "At least one compound was matched to its structure with a doubt left."}
{"compound": "C[C@H]1[C@@H](O)O[C@@H]2O[C@@]3(C)CC[C@H]4[C@H](C)CC[C@@H]1[C@@]24OO3", "note": "[DHA, dihydroartemisinin, reference compound]", "values": [{"measurement": "effect to inhibit tumor proliferation in TCTP KO tumors", "setting": "TCTP KO tumors", "result": "not observed"}, {"measurement": "proliferation of SL4 tumors", "setting": "SL4 tumors", "result": "inhibited"}]}
